Where a SMILES comes first, the peptide text is derived from it. Bridges are numbered along the chain shown (N, C = ends). The star is where a group is joined. X1 = O=C(CO)NCCOCCOCCOCCOCCOCCNC(=O)COCC(=O)*; X2 = NC(=O)COCC(=O)NCCOCCOCCOCCN*
Experiment: Quench/derivatisation of acetaldehyde in Fluciclatide (18F) Injection with aldehyde scavenger AH111695, AH111930 determined by HPLC
Assay type: physicochemical
Method: In an experiment to analyse the content of acetaldehyde in a Fluciclatide (^18F) Injection sample using HPLC, the acetaldeyde was derivatized to an UV absorbing fluciclatide analogue AH111930 using AH111695 (Scheme 1).
After 10 hours of decay, 0.5 ml sample of Fluciclatide (^18F) Injection was mixed with 0.5 ml of aqueous 1.6 mM AH111695/77.2 mM aniline HCl and heated to 60° C. for 30 min. […] In contrast, the amount of acetaldehyde in a control sample that was unquenched (i.e., no aldehyde scavenger AH111695 was added) was later determined by GC analysis to be 6.9 μg. The deviation between the HPLC and GC results is due to the higher sensitivity of the HPLC method over the GC method.

SMILES: N=C(N)NCCC[C@@H]1NC(=O)[C@@H]2CSSC[C@H](NC(=O)[C@H](CC(=O)O)NC(=O)CNC1=O)C(=O)N[C@@H](Cc1ccccc1)C(=O)N[C@H](C(=O)NCCOCCOCCOCCNC(=O)COCC(N)=O)CSCC(=O)N[C@@H](CCCCNC(=O)COCC(=O)NCCOCCOCCOCCOCCOCCNC(=O)CO)C(=O)N2 [AH111695] ({CH2CO}-K(X1)CRGDCFC-X2; disulfide 2-6; thioether N-8)
- amount of acetaldehyde quenched by AH111695 (0.5 ml Fluciclatide (18F) Injection after 10 hours of decay + 0.5 ml aqueous 1.6 mM AH111695/77.2 mM aniline HCl, 60° C. for 30 min, molar content of AH111930 by HPLC): 7.6 µg/mL
- quench of acetaldehyde by addition of the aldehyde scavenger (HPLC result compared with GC of unquenched control): complete quench

From patent US11964020B2, “Method for removing acetaldehyde” (GE HEALTHCARE LIMITED, priority 2014, dated 2024)
